Test results from paper PMC7819943, “Rice protein-binding microarrays: a tool to detect cis-acting elements near promoter regions in rice”.
Some of the results follow.

target: T1, OsSMF1 (Oryza sativa, UniProt Q6ZLB0 1-436); experiment: protein-binding microarray (RPBM); PBS, 2% BSA, 51.3 ng/ul salmon testes DNA, 50 uM zinc acetate, 200 nM TF, 25 C, 1 h; high values mean tight binding; details: protein: recombinant; tags: N-terminal polyhistidine and DsRed monomer fusion (pET32a); chain copies: 2; label: CyDye5-dUTP incorporated in the synthesized complementary strand; 3' TTTTT single-stranded linker to array surface; dsDNA, one strand shown
T1 sequence: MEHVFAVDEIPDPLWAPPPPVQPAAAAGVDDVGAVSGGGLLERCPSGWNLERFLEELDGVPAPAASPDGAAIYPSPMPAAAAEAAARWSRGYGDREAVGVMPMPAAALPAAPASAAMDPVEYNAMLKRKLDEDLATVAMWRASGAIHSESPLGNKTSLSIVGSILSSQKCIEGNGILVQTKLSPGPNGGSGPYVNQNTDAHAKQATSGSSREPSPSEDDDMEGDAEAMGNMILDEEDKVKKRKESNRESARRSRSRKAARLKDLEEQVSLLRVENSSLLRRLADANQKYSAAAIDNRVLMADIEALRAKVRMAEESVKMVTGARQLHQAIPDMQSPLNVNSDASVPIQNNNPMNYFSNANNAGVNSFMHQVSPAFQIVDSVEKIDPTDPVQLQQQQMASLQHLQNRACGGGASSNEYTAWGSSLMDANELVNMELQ
How it was run: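 An Axon 4000B scanner gave the binding signal as per-feature fluorescence intensity in arbitrary units. This followed washing of a custom Agilent array that had been incubated for 1 h at 25 °C with 200 nM protein in PBS, 2% BSA, salmon testes DNA and 50 µM zinc acetate. The proteins were transcription factors fused at the N-terminus to polyhistidine and DsRed, expressed in E. coli BL21-CodonPlus and purified on Ni–NTA.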

Row | Sequence | binding signal
1 | TGCACTGTGACTTCTGACTGTTATAAATTGTGTTCTCTTGCGGAGTCACCTAGTGCAG | 3550 fluorescence intensity (a.u.)
2 | AGCTTAATATAGCACGTCAGCTTCTCAGCTCTAACCTCTCCGGAGTCACCTAGTGCAG | 5780 fluorescence intensity (a.u.)
3 | CAGTTTCTTCAGAGTTTTCTGAATGATGCTTATGATACATCGGAGTCACCTAGTGCAG | 3230 fluorescence intensity (a.u.)
4 | CGACACATGACTTCACCGCCTGACGCCGCCTCACCACCCACGGAGTCACCTAGTGCAG | 4770 fluorescence intensity (a.u.)
5 | AAAATACAGATCCGTGTTTGAGTCAGATTTTAAATTCGTTCGGAGTCACCTAGTGCAG | 3140 fluorescence intensity (a.u.)
6 | TACCTCCAAAGGCAGTTCATTTCGAAGTCAAAGAGAAGTTCGGAGTCACCTAGTGCAG | 3360 fluorescence intensity (a.u.)
7 | CGCGTGCCCAGCGCGCGTCACGTGGTCACACGCGGTGCGGCGGAGTCACCTAGTGCAG | 3870 fluorescence intensity (a.u.)
8 | TACTTGCGGTAACCTGTCAATTGGTCATACGTCAAGGGTCCGGAGTCACCTAGTGCAG | 4320 fluorescence intensity (a.u.)
9 | TAAATTTGACTAAATATAACCCATGGTGACGTATCGACTACGGAGTCACCTAGTGCAG | 5630 fluorescence intensity (a.u.)
10 | TCAAACATCTGATGTGACATGGACTAAAGTTTAGTCCCTACGGAGTCACCTAGTGCAG | 4150 fluorescence intensity (a.u.)
11 | TTCTCCCACCGCATCCTCTCTCCCCTTGAGTATTTACTTTCGGAGTCACCTAGTGCAG | 3420 fluorescence intensity (a.u.)
12 | ATTATTCATAAGCTGAATATTCTTATTCATACATTCGGATCGGAGTCACCTAGTGCAG | 6460 fluorescence intensity (a.u.)
13 | ACAAGTTGAGTCATGTTCACGTCAGTTGGGTGGTATGAATCGGAGTCACCTAGTGCAG | 5980 fluorescence intensity (a.u.)
14 | GCTTGCTTTTCCTCTCCTGACGCGTGCGCTGCTGCTGCTCCGGAGTCACCTAGTGCAG | 4840 fluorescence intensity (a.u.)
15 | CGGCCGCCGGCGCCCTCCACGACCCCAACGTCGACATGCTCGGAGTCACCTAGTGCAG | 4310 fluorescence intensity (a.u.)
16 | CACAAATCCAGATCGTATCAGCTGATTGATTCATTCTGATCGGAGTCACCTAGTGCAG | 3160 fluorescence intensity (a.u.)
17 | ATCCAGCTCCACCTCTATAGTTCAGCCTTGTTTGGCACCGCGGAGTCACCTAGTGCAG | 3270 fluorescence intensity (a.u.)
18 | GCCACTGGATCCAGCGACCCCGGCCACTTCGCCGGCGGCTCGGAGTCACCTAGTGCAG | 3340 fluorescence intensity (a.u.)
19 | AGACTTTCAGTAAACTCCCCACATCATCATGTTATTATCGCGGAGTCACCTAGTGCAG | 3980 fluorescence intensity (a.u.)
20 | GCATCCCAGCCGTCCACGTCCCGGAGGAATAACACACCCTCGGAGTCACCTAGTGCAG | 4270 fluorescence intensity (a.u.)
21 | TAAAATCAATCAGGTTTCAATATCAATAGGTGTTTTCACTCGGAGTCACCTAGTGCAG | 3240 fluorescence intensity (a.u.)
22 | GCGGGAAGGCGCGCAGTGACGGCAACGGTGACCCCACATGCGGAGTCACCTAGTGCAG | 3820 fluorescence intensity (a.u.)
23 | ATCCGCAGTTCCACCCGCACGTGACTGCATAATACCGTGACGGAGTCACCTAGTGCAG | 3440 fluorescence intensity (a.u.)

Some of the entries above, reformatted:
Row	Sequence	binding signal
20	GCATCCCAGCCGTCCACGTCCCGGAGGAATAACACACCCTCGGAGTCACCTAGTGCAG	4270 fluorescence intensity (a.u.)
23	ATCCGCAGTTCCACCCGCACGTGACTGCATAATACCGTGACGGAGTCACCTAGTGCAG	3440 fluorescence intensity (a.u.)
